Some of these results come from one statement about several compounds together.
Tested on: M. tuberculosis H37Rv-GFP in Raw264.7 macrophages
Format: cell-based

COc1ccc2nc(-c3noc(C4CCN(C(=O)CCC(F)(F)F)CC4)n3)sc2c1 [Compound 7, 4,4,4-Trifluoro-1-{4-[3-(6-methoxy-benzothiazol-2-yl)-1,2,4-oxadiazol-5-yl]-piperidin-1-yl}-butan-1-one] showed an EC50 of no more than 500 nM.
